Laboratory results: PubChem BioAssay AID1259308 (NCATS, 2017)
This is an unselected part of about 59,000 reagents. Over the whole deposit, about 1,510 (2.6%) are marked active. 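Calls use total luciferase alone and ignore viability, so some active siRNAs may act by altering cell number.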 Reagents against one gene are numbered here.

Test: 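Knock-downs that increase output of a recombinant reporter protein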 (primary screen)
Cell system: human HEK293 embryonic kidney cells stably expressing firefly luciferase (HEK-CMV-Luc2-Hygro)
Reagents: single siRNA against human genes, 0.8 pmol siRNA per well
Timing: 72 h
Read-out: 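Luciferase light (ONE-Glo) measured on one replicate plate set and viability (CellTiter-Glo) on the other, scaled to a negative control siRNA, with robust z-scores and luciferase per cell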
Scale: total luciferase, z-score and total luciferase, % of control: higher = more reporter protein produced; luciferase per cell, z-score: higher = more reporter output per viable cell; viable cells, % of control: higher = more viable cells
Rule for the call: 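Active when the median/MAD z-score for overall luciferase is greater than 3; a gene was taken forward for validation with new siRNAs if at least two of its three siRNAs passed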
Meaning of the calls: active = raised luciferase; inactive = no rise

gene knocked down,reagent no.,"total luciferase, z-score","total luciferase, % of control","luciferase per cell, z-score","viable cells, % of control",activity call
GBGT1,1,-1.35,55.1,-0.908,78.2,inactive
GBGT1,2,-0.582,70.3,0.0454,77.6,inactive
GBGT1,3,0.982,101,0.704,94.1,inactive
UBTD2,1,0.0981,83.8,-0.23,99.5,inactive
UBTD2,2,1.42,110,1.66,79.6,inactive
UBTD2,3,0.83,98.4,0.103,107,inactive
GSG1L2,1,-0.418,73.6,-0.739,99.9,inactive
GSG1L2,2,-0.21,77.7,-0.363,95.6,inactive
GSG1L2,3,0.00826,82.1,-0.823,114,inactive
STAM2,1,-0.471,72.5,-0.626,95.6,inactive
STAM2,2,-0.9,64,-0.51,81.8,inactive
STAM2,3,-1.09,60.3,-0.986,87.3,inactive
OR12D3,1,1.04,103,0.577,98.5,inactive
OR12D3,2,1.12,104,0.708,96.6,inactive
OR12D3,3,-0.168,78.5,-0.119,90.6,inactive
DYDC1,1,1.23,106,1.47,80.7,inactive
DYDC1,2,-1.25,57,-1.12,85.5,inactive
DYDC1,3,0.0812,83.5,0.255,87.2,inactive
CDCA5,1,-0.896,64.1,0.809,57.9,inactive
CDCA5,2,-1.2,58.1,0.284,60.2,inactive
CDCA5,3,1.73,116,2.15,73.8,inactive
CDC20B,1,6.39,209,3.52,92.4,active
CDC20B,2,-0.798,66,-0.754,90,inactive
CDC20B,3,-1.72,47.7,-1.72,83.9,inactive
PSD3,1,-0.0508,80.9,0.536,78.5,inactive
PSD3,2,0.496,91.7,0.223,96.7,inactive
PSD3,3,-0.78,66.4,-0.751,90.4,inactive
PBDC1,1,-0.564,70.7,0.00559,78.9,inactive
PBDC1,2,-1.14,59.3,-1.19,90.7,inactive
PBDC1,3,-0.696,68,0.0547,74.9,inactive
NISCH,1,2.39,129,2.07,83.9,inactive
NISCH,2,-0.867,64.6,-1.19,98.8,inactive
NISCH,3,-1.2,58.1,-0.766,79.4,inactive
WDR64,1,-0.0138,81.6,0.623,77.4,inactive
WDR64,2,-0.129,79.3,0.0892,86.6,inactive
WDR64,3,-0.91,63.8,-1.52,106,inactive
AMOTL2,1,-0.0482,80.9,0.653,76.1,inactive
AMOTL2,2,-0.517,71.6,0.188,76.1,inactive
AMOTL2,3,-0.219,77.5,-0.464,97.9,inactive
XPNPEP3,1,-2.41,34,-2.45,72.4,inactive
XPNPEP3,2,-0.711,67.7,-1.19,104,inactive
XPNPEP3,3,-0.859,64.8,-0.912,92.1,inactive

Next part, starting with the last 7 of the part before.
gene knocked down,reagent no.,"total luciferase, z-score","total luciferase, % of control","luciferase per cell, z-score","viable cells, % of control",activity call
WDR64,3,-0.91,63.8,-1.52,106,inactive
AMOTL2,1,-0.0482,80.9,0.653,76.1,inactive
AMOTL2,2,-0.517,71.6,0.188,76.1,inactive
AMOTL2,3,-0.219,77.5,-0.464,97.9,inactive
XPNPEP3,1,-2.41,34,-2.45,72.4,inactive
XPNPEP3,2,-0.711,67.7,-1.19,104,inactive
XPNPEP3,3,-0.859,64.8,-0.912,92.1,inactive
SMAD6,1,-1.05,61.1,-0.613,80.2,inactive
SMAD6,2,0.444,90.7,0.0103,101,inactive
SMAD6,3,-1.55,51.1,-0.912,72.7,inactive
FBF1,1,-0.296,76,0.306,78.3,inactive
FBF1,2,-0.126,79.4,-0.227,94.2,inactive
FBF1,3,2.21,126,1.96,84,inactive
MAGEE1,1,0.441,90.7,0.635,85.7,inactive
MAGEE1,2,0.211,86.1,-0.157,100,inactive
MAGEE1,3,0.0304,82.5,-0.597,108,inactive
CRIP3,1,0.423,90.3,0.0154,100,inactive
CRIP3,2,0.631,94.4,0.0895,103,inactive
CRIP3,3,-1.16,58.9,-1.34,93.7,inactive
BEST1,1,-2.33,35.5,-1.79,63.6,inactive
BEST1,2,0.0245,82.4,-0.306,99.8,inactive
BEST1,3,-0.522,71.5,-1.11,107,inactive
MRPL44,1,0.337,88.6,-0.408,110,inactive
MRPL44,2,0.235,86.6,0.419,86.6,inactive
MRPL44,3,1.84,119,1.22,96,inactive
RPL10P9,1,0.73,96.4,0.734,88.8,inactive
RPL10P9,2,-1.93,43.6,-1.82,78.5,inactive
RPL10P9,3,-3.05,21.2,0.456,21,inactive
RFPL4AL1,1,0.824,98.3,0.69,91.6,inactive
RFPL4AL1,2,-0.602,69.9,-0.568,90.7,inactive
RFPL4AL1,3,-0.443,73.1,-0.6,95.6,inactive
OR13C3,1,0.222,86.3,0.922,75.6,inactive
OR13C3,2,0.267,87.2,1.19,71.3,inactive
OR13C3,3,0.518,92.2,0.0889,101,inactive
NOS2,1,1.39,110,1.38,85.1,inactive
NOS2,2,0.0383,82.6,-0.344,101,inactive
NOS2,3,0.64,94.6,0.357,96.2,inactive
MEP1B,1,-0.196,78,-0.787,107,inactive
MEP1B,2,-0.836,65.3,-1.02,95.5,inactive
MEP1B,3,0.987,102,0.847,90.8,inactive
